No constants are given. Whether binding was seen depends on the method and setting. Binding seen in cells or lysates may run through a third protein.
Target: GST–PBD^+ (Polo-box domain of Plk1), immobilised (human)
Assay: pull-down; 10 µg immobilised GST–PBD^+ with about 650 µg HeLa lysate, 12–15 h at 4°C; cells blocked with nocodazole and treated with DMSO, 22.5 µM purvalanol A or 100 nM BI-2536; only the target purified

B1: HsCyk-4/MgcRacGAP, endogenous (protein, UniProt Q9H0H5 1-632)
chain: MDTMMLNVRNLFEQLVRRVEILSEGNEVQFIQLAKDFEDFRKKWQRTDHELGKYKDLLMKAETERSALDVKLKHARNQVDVEIKRRQRAEADCEKLERQIQLIREMLMCDTSGSIQLSEEQKSALAFLNRGQPSSSNAGNKRLSTIDESGSILSDISFDKTDESLDWDSSLVKTFKLKKREKRRSTSRQFVDGPPGPVKKTRSIGSAVDQGNESIVAKTTVTVPNDGGPIEAVSTIETVPYWTRSRRKTGTLQPWNSDSTLNSRQLEPRTETDSVGTPQSNGGMRLHDFVSKTVIKPESCVPCGKRIKFGKLSLKCRDCRVVSHPECRDRCPLPCIPTLIGTPVKIGEGMLADFVSQTSPMIPSIVVHCVNEIEQRGLTETGLYRISGCDRTVKELKEKFLRVKTVPLLSKVDDIHAICSLLKDFLRNLKEPLLTFRLNRAFMEAAEITDEDNSIAAMYQAVGELPQANRDTLAFLMIHLQRVAQSPHTKMDVANLAKVFGPTIVAHAVPNPDPVTMLQDIKRQPKVVERLLSLPLEYWSQFMMVEQENIDPLHVIENSNAFSTPQTPDIKVSLLGPVTTPEHQLLKTPSSSSLSQRVRSTLTKNTPRFGSKSKSATNLGRQGNFFASPMLK
- binding: no binding
